{"sequences": {"note": "Protein sequences, listed by entry. Tags and fused reporters are not part of them.", "UniProt O43791": "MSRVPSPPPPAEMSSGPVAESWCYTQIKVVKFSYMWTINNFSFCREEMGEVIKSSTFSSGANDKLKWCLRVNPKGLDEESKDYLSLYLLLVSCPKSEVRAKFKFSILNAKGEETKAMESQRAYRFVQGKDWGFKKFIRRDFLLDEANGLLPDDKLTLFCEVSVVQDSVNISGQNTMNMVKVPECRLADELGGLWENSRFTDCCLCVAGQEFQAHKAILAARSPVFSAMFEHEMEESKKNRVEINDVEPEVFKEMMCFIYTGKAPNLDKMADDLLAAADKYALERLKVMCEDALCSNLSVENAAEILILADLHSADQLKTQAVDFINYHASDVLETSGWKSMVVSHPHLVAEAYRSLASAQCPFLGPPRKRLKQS", "UniProt Q7Z5L9": "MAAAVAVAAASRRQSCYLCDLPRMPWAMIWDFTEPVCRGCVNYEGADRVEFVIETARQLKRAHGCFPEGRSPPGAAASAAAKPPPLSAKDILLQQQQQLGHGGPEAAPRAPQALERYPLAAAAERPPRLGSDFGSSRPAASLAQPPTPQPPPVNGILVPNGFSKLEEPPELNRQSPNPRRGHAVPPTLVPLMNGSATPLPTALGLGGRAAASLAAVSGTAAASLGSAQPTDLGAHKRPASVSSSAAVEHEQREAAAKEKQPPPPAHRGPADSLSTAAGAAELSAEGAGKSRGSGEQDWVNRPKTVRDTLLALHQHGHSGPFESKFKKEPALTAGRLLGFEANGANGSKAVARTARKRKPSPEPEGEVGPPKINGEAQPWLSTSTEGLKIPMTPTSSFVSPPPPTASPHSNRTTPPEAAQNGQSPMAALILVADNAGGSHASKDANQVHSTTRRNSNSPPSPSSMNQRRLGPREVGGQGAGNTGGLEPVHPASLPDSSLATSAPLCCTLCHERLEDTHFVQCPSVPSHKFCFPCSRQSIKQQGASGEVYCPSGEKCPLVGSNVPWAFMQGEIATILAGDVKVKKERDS"}, "source": "paper PMC10897488", "target": "SPOP (bait of the immunoprecipitation with mass spectrometry) (UniProt O43791)", "assay": "affinity purification with mass spectrometry; immunoprecipitation with SPOP as bait, then mass spectrometry; cells and construct not told", "note": "These are yes or no findings as the source states them, for the method shown. In cells and extracts the contact can be indirect. These calls come from enrichment with a bait or labelling near it, and not all partners need be listed.", "data": [{"substance": "IRF2BP2 (candidate found by mass spectrometry) (from UniProt Q7Z5L9 1-587)", "values": [{"measurement": "binding", "result": "binds"}]}]}
